Measured values published in paper doi:10.1101/2021.03.28.437395.
Results are given in words; binding and its absence hold for the method and conditions named. Some binding calls cover weakened binding; strength is not graded here.

Chains of the proteins cited; added tags and fusions are not shown.
UniProt Q9XEB5, whole entry: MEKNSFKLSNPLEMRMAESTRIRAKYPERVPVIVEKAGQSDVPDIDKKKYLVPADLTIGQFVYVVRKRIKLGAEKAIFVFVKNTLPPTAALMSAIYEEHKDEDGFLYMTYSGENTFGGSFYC

Columns and labels:
Assay in all cases: two-hybrid
[1] = target: T1, ATG8c (UniProt Q8S927)
T1 sequence: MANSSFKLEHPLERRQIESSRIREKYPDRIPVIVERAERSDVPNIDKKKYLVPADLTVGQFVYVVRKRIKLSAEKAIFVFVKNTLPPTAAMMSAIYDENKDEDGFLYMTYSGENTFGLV

[2] = target: T2, ATG8a (UniProt Q8LEM4)
T2 sequence: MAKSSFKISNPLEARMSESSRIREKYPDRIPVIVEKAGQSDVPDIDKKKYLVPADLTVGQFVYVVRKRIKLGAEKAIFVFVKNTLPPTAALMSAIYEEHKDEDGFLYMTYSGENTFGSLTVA

[3] = target: T3, ATG8d (UniProt Q9SL04)
T3 sequence: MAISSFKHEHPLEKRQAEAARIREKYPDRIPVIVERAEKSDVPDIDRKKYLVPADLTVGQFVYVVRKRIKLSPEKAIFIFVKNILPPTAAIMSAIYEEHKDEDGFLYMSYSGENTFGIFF

[4] = target: T4, ATG8e (UniProt Q8S926)
T4 sequence: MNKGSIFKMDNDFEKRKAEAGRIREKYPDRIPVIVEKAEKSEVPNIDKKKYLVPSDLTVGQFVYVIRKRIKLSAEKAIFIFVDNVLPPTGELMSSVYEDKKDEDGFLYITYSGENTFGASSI

[5] = target: T5, ATG8f (UniProt Q8VYK7)
T5 sequence: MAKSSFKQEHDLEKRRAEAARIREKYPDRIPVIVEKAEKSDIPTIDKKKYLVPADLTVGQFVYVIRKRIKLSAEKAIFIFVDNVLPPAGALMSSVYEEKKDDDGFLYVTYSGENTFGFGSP

[6] = target: ATG8b (UniProt Q9XEB5)

Measured: binding

B1: Turnip crinkle virus (TCV) capsid protein P38 (protein, UniProt P06663 1-351)
chain: MENDPRVRKFASDGAQWAIKWQKKGWSTLTSRQKQTARAAMGIKLSPVAQPVQKVTRLSAPVALAYREVSTQPRVSTARDGITRSGSELITTLKKNTDTEPKYTTAVLNPSEPGTFNQLIKEAAQYEKYRFTSLRFRYSPMSPSTTGGKVALAFDRDAAKPPPNDLASLYNIEGCVSSVPWTGFILTVPTDSTDRFVADGISDPKLVDFGKLIMATYGQGANDAAQLGEVRVEYTVQLKNRTGSTSDAQIGDFAGVKDGPRLVSWSKTKGTAGWEHDCHFLGTGNFSLTLFYEKAPVSGLENADASDFSVLGEAAAGSVQWAGVKVAERGQGVKMVTTEEQPKGKWQALRI
binds: [1] | [2] | [3] | [4] | [5] | [6]
